Measured values as given in PMC9280481.
No constants are given. Whether binding was seen depends on the method and setting. Binding seen in cells or lysates may run through a third protein. Some entries that bind do so weakly or less than the wild type.

Amino acid sequences for entries named in this document (tags omitted). A change or cut given only in a name is not applied to a line headed by its entry.
UniProt Q969H0: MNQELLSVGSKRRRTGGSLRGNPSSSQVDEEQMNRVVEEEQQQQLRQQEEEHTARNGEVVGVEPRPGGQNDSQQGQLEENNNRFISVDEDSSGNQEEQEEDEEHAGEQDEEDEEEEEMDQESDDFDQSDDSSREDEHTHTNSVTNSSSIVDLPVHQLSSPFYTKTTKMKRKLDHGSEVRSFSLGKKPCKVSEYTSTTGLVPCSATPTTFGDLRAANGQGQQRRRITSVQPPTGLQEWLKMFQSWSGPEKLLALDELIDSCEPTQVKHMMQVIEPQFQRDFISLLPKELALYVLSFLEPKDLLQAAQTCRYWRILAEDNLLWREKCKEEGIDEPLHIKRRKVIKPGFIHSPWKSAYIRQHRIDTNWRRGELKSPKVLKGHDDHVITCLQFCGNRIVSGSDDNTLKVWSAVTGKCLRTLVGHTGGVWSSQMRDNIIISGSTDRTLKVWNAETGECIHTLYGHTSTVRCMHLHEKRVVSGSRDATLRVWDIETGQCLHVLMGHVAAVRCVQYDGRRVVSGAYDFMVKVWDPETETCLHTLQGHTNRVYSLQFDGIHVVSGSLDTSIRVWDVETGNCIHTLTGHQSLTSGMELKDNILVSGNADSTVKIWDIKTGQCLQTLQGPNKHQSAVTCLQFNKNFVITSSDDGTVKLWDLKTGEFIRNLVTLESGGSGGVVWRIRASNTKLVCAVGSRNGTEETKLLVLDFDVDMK

T1: F-box protein 9 (FBXO9) (human (endogenous in HCC cells)) (UniProt Q9UK97)
T1 sequence: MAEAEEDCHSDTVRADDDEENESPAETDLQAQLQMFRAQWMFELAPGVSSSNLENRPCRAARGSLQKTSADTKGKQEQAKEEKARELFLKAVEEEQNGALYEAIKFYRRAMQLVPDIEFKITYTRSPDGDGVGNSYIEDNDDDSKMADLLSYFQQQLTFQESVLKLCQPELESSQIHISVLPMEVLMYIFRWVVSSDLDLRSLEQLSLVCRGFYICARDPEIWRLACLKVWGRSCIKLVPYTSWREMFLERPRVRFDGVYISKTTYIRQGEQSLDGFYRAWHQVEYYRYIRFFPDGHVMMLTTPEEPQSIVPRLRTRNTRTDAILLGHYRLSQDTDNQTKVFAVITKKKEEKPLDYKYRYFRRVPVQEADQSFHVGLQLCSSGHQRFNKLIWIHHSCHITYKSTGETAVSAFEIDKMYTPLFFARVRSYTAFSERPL

B1: F-box protein 9 (FBXO9) (protein, UniProt Q9UK97-2 1-437)
chain: T1 sequence

Key:
[1] = target: T1, F-box protein 9 (FBXO9) (human (endogenous in HCC cells)); test: co-IP; endogenous proteins in HCC cells; RIPA lysis buffer; lysates immunoprecipitated with antibodies (anti-FBXO9, anti-mTOR or anti-FBXW7) and protein A/G agarose beads overnight at 4°C; western blotting
[2] = target: F-box and WD repeat domain containing 7 (FBXW7) (human (endogenous in HCC cells)) (UniProt Q969H0); test: as above

Molecule | binding [1] | binding [2]
F-box and WD repeat domain containing 7 (FBXW7) (from UniProt Q969H0-1 1-707) | binds | 
B1 |  | binds
